Experimental data as given in article PMC5289615.
No constants are given. Whether binding was seen depends on the method and setting. Binding seen in cells or lysates may run through a third protein. Some results given as binding are weak or reduced against the parent protein; the word gives no strength.

Sequences of proteins named here, by UniProt entry; tags and fusion partners are left off.
UniProt Q27497: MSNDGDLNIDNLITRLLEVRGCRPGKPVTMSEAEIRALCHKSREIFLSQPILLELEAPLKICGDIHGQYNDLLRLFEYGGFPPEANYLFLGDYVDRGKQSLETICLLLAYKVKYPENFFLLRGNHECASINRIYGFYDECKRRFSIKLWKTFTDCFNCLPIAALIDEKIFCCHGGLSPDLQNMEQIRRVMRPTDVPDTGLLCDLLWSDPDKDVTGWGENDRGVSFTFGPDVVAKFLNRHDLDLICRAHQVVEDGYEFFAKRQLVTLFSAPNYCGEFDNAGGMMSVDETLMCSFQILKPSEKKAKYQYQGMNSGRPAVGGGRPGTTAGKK

B1: SDS-22 (C. elegans leucine-rich repeat PP1 regulator) (protein, UniProt P45969 1-326)
chain: MSNDKSAEVVVLPRENDEESKEPVLKNQFDLSTFDIDSPEIDLTHTRADHIPDLTGFPKIEELRMRNNLLVSISPTISSLVTLTSLDLYENQLTEISHLESLVNLVSLDLSYNRIRQINGLDKLTKLETLYLVSNKIEKIENLEALTQLKLLELGDNRIKKIENIGHLVNLDELFIGKNKIRQLEGVETLQKLSVLSLPGNRIVKIENVEQLNNLKELYLSDQGLQDIHGVEPLTNLLLLDVANNEIKTFSGVERLESLNDFWANDNKVESFSEIEQLSKLKGLQTVYLERNPFYFNDTNQYRRKVMMTLTQVTQIDATTCRKPIE
B2: ZYG-1 (C. elegans homolog of Plk4) (enzyme, UniProt Q9GT24 1-706)
chain: MSGGKSGSRLSAYSHLKEIGKGGFGVVYAAQRENGEKVAIKRIDKKVPKNRVWTEIQTMKELKKSKYVVEFYEDFVEDGYTYIVMELCEGGSLQAYVREHGALDDATAVHVLRQLISAVSFMHRVNVIHRDLSAGNVFIKDSKKKKMTVKLGDFGLATTLGRGETTCTIVGTPGFIAPQVYDQEYTQSADVYSLGAVLYTMLTARNPPPKGLPPTCGMSPNAARLVEQMMDTDAKKRIPLTQIVLSEFMYENTNENAVIFSREHSRDGRRQRSREPVRSSRDDRSRDGRALIRSSSQPAHSGRAPLSNRPIHDRMPSTSSRGFDSERGRERDRDSGRGTVPPSREDRNRSQLWPIRMDRLEGQRVCTAGGRYIVELDTRCRFEVAAQGNFVKRILIVEVDEMVQTVYVHRIPDRTVRGRNGEEELITLTNNPFVYTSYSQMPKEVQNDYMRLQKMVAVTISGRVAKVTFRRPSQFPDAQAQLMENGDLRIKLPRSVIVRKMDNGEIFNCIDGIATQKQAVSGITLTKVNEVYKYLIRFEQCLNGMDRGMVCFPIVFSAGTNMVGSSPSSLMPSGSSQTSRFPFSNLSNNQPSLVPHSAPFLTKPTSSQRASSANVQRRVSTDENSSPSVAPSKYKIKIDPTTQKVRSIQATDGRVLRCSTSKADQFIFTDPAIRPDDQRFMRTDRVPDRASEMLHTLCERMRKLHQ

Assays:
[1] = target: PP1β^GSP-1 (C. elegans PP1 catalytic subunit, PP1β homolog) (C. elegans (endogenous in N2 worms)) (UniProt Q27497); assay: co-IP; endogenous proteins immunoprecipitated from N2 whole worm extracts (1.6 mg total protein) with 10 ug antibody on Dynabeads Protein A, 4°C; washed in worm lysis buffer (50 mM HEPES pH 7.4, 1 mM EGTA, 1 mM MgCl2, 100 mM KCl, 10% glycerol, 0.05% NP-40); western blot; control IgG
[2] = target: T1, SDS-22 (C. elegans leucine-rich repeat PP1 regulator) (C. elegans (endogenous in N2 worms)) (UniProt P45969); assay: as above
T1 sequence: B1 chain

| Binder | binding [1] | binding [2] |
| --- | --- | --- |
| B1 | binds | – |
| B2 | no binding | no binding |
